# Experimental data taken from the supplement of paper PMC11438910.
# The list shows a part of the results. Only a few entries rise above the background.
# Assays:
# Experiment in all cases: fluorescence intensity of antibody binding to polysaccharide-coupled beads; higher = stronger binding
# [1] = molecular target: pneumococcal polysaccharide Pn35C
# [2] = molecular target: pneumococcal polysaccharide Pn35F
# [3] = molecular target: pneumococcal polysaccharide Pn36
# [4] = molecular target: pneumococcal polysaccharide Pn37
# [5] = molecular target: pneumococcal polysaccharide Pn38
# [6] = molecular target: pneumococcal polysaccharide Pn39
# [7] = molecular target: pneumococcal polysaccharide Pn4
# [8] = molecular target: pneumococcal polysaccharide Pn40
# [9] = molecular target: pneumococcal polysaccharide Pn41A
# [10] = molecular target: pneumococcal polysaccharide Pn41F
# [11] = molecular target: pneumococcal polysaccharide Pn42
# [12] = molecular target: pneumococcal polysaccharide Pn43
# [13] = molecular target: pneumococcal polysaccharide Pn44
# [14] = molecular target: pneumococcal polysaccharide Pn45
# [15] = molecular target: pneumococcal polysaccharide Pn46
# [16] = molecular target: pneumococcal polysaccharide Pn47A
# [17] = molecular target: pneumococcal polysaccharide Pn47F
# [18] = molecular target: pneumococcal polysaccharide Pn48
# [19] = molecular target: pneumococcal polysaccharide Pn5
# [20] = molecular target: pneumococcal polysaccharide Pn6A
# [21] = molecular target: pneumococcal polysaccharide Pn6B
# [22] = molecular target: pneumococcal polysaccharide Pn6C
# [23] = molecular target: pneumococcal polysaccharide Pn6D
# [24] = molecular target: pneumococcal polysaccharide Pn7A
# [25] = antibody concentration 2337.65 ng/mL
# [26] = antibody concentration 12500 ng/mL
# [27] = antibody concentration 0.1 ng/mL
# [28] = antibody concentration 0.534724 ng/mL
# [29] = antibody concentration 2.8593 ng/mL
# [30] = antibody concentration 15.2894 ng/mL
# [31] = antibody concentration 81.7561 ng/mL
# [32] = antibody concentration 437.17 ng/mL
binder,measurement,setting,value
4-99.2 (protein) chain 1: QVQLQESGPGLVKPSETLSLTCAVSGYSIRSAYEWGWIRQPPGKGLEYIGYISGESGNTYYSPSLKSRVTISRDTSKNQFSLRLSSVTAADSAVYYCARRGQLIGFDFWGQGVLVTVSS chain 2: QAAPTQPPSVSGSPGQSVTISCTGTSSDIGYYNAVSWYQHLPGKAPKLMIYEVSKRPSGVSDRFSGSKSGNTASLTISGLQAEDEADYYCSSYAGSNTYIFGAGTRLTVL,fluorescence intensity,[1]; [25],20.5 MFI
same,fluorescence intensity,[1]; [26],23 MFI
same,fluorescence intensity,[2]; [27],17.5 MFI
same,fluorescence intensity,[2]; [28],19 MFI
same,fluorescence intensity,[2]; [29],19 MFI
same,fluorescence intensity,[2]; [30],19 MFI
same,fluorescence intensity,[2]; [31],21 MFI
same,fluorescence intensity,[2]; [32],19 MFI
same,fluorescence intensity,[2]; [25],18.5 MFI
same,fluorescence intensity,[2]; [26],23 MFI
same,fluorescence intensity,[3]; [27],15 MFI
same,fluorescence intensity,[3]; [28],15 MFI
same,fluorescence intensity,[3]; [29],15 MFI
same,fluorescence intensity,[3]; [30],16.5 MFI
same,fluorescence intensity,[3]; [31],15 MFI
same,fluorescence intensity,[3]; [32],17 MFI
same,fluorescence intensity,[3]; [25],17.5 MFI
same,fluorescence intensity,[3]; [26],31.8 MFI
same,fluorescence intensity,[4]; [27],24.5 MFI
same,fluorescence intensity,[4]; [28],23 MFI
same,fluorescence intensity,[4]; [29],24 MFI
same,fluorescence intensity,[4]; [30],24 MFI
same,fluorescence intensity,[4]; [31],25.5 MFI
same,fluorescence intensity,[4]; [32],25 MFI
same,fluorescence intensity,[4]; [25],33 MFI
same,fluorescence intensity,[4]; [26],99.5 MFI
same,fluorescence intensity,[5]; [27],24.5 MFI
same,fluorescence intensity,[5]; [28],25 MFI
same,fluorescence intensity,[5]; [29],26 MFI
same,fluorescence intensity,[5]; [30],24 MFI
same,fluorescence intensity,[5]; [31],27 MFI
same,fluorescence intensity,[5]; [32],25.5 MFI
same,fluorescence intensity,[5]; [25],28.5 MFI
same,fluorescence intensity,[5]; [26],36.5 MFI
same,fluorescence intensity,[6]; [27],18.2 MFI
same,fluorescence intensity,[6]; [28],18 MFI
same,fluorescence intensity,[6]; [29],18 MFI
same,fluorescence intensity,[6]; [30],19 MFI
same,fluorescence intensity,[6]; [31],19.5 MFI
same,fluorescence intensity,[6]; [32],19.5 MFI
same,fluorescence intensity,[6]; [25],20.5 MFI
same,fluorescence intensity,[6]; [26],30.2 MFI
same,fluorescence intensity,[7]; [27],17 MFI
same,fluorescence intensity,[7]; [28],17.5 MFI
same,fluorescence intensity,[7]; [29],16 MFI
same,fluorescence intensity,[7]; [30],16.5 MFI
same,fluorescence intensity,[7]; [31],18 MFI
same,fluorescence intensity,[7]; [32],19 MFI
same,fluorescence intensity,[7]; [25],22.2 MFI
same,fluorescence intensity,[7]; [26],34 MFI
same,fluorescence intensity,[8]; [27],16 MFI
same,fluorescence intensity,[8]; [28],15.5 MFI
same,fluorescence intensity,[8]; [29],16 MFI
same,fluorescence intensity,[8]; [30],16.5 MFI
same,fluorescence intensity,[8]; [31],16 MFI
same,fluorescence intensity,[8]; [32],18 MFI
same,fluorescence intensity,[8]; [25],18.5 MFI
same,fluorescence intensity,[8]; [26],38 MFI
same,fluorescence intensity,[9]; [27],21.2 MFI
same,fluorescence intensity,[9]; [28],21.5 MFI
same,fluorescence intensity,[9]; [29],22 MFI
same,fluorescence intensity,[9]; [30],22.5 MFI
same,fluorescence intensity,[9]; [31],23 MFI
same,fluorescence intensity,[9]; [32],22.5 MFI
same,fluorescence intensity,[9]; [25],25 MFI
same,fluorescence intensity,[9]; [26],28 MFI
same,fluorescence intensity,[10]; [27],12.5 MFI
same,fluorescence intensity,[10]; [28],12 MFI
same,fluorescence intensity,[10]; [29],12.8 MFI
same,fluorescence intensity,[10]; [30],12 MFI
same,fluorescence intensity,[10]; [31],12.5 MFI
same,fluorescence intensity,[10]; [32],12 MFI
same,fluorescence intensity,[10]; [25],13 MFI
same,fluorescence intensity,[10]; [26],18.5 MFI
same,fluorescence intensity,[11]; [27],12 MFI
same,fluorescence intensity,[11]; [28],10.8 MFI
same,fluorescence intensity,[11]; [29],11 MFI
same,fluorescence intensity,[11]; [30],11 MFI
same,fluorescence intensity,[11]; [31],10.5 MFI
same,fluorescence intensity,[11]; [32],11.5 MFI
same,fluorescence intensity,[11]; [25],13 MFI
same,fluorescence intensity,[11]; [26],18.5 MFI
same,fluorescence intensity,[12]; [27],13.5 MFI
same,fluorescence intensity,[12]; [28],14.5 MFI
same,fluorescence intensity,[12]; [29],15.5 MFI
same,fluorescence intensity,[12]; [30],14 MFI
same,fluorescence intensity,[12]; [31],15.5 MFI
same,fluorescence intensity,[12]; [32],16.5 MFI
same,fluorescence intensity,[12]; [25],19.5 MFI
same,fluorescence intensity,[12]; [26],55.5 MFI
same,fluorescence intensity,[13]; [27],25 MFI
same,fluorescence intensity,[13]; [28],23.5 MFI
same,fluorescence intensity,[13]; [29],23.5 MFI
same,fluorescence intensity,[13]; [30],23.5 MFI
same,fluorescence intensity,[13]; [31],23.5 MFI
same,fluorescence intensity,[13]; [32],24.5 MFI
same,fluorescence intensity,[13]; [25],25.5 MFI
same,fluorescence intensity,[13]; [26],31.8 MFI
same,fluorescence intensity,[14]; [27],11.5 MFI
same,fluorescence intensity,[14]; [28],11 MFI
same,fluorescence intensity,[14]; [29],9.25 MFI
same,fluorescence intensity,[14]; [30],11 MFI
same,fluorescence intensity,[14]; [31],11 MFI
same,fluorescence intensity,[14]; [32],11 MFI
same,fluorescence intensity,[14]; [25],11.5 MFI
same,fluorescence intensity,[14]; [26],15.5 MFI
same,fluorescence intensity,[15]; [27],22.5 MFI
same,fluorescence intensity,[15]; [28],23.5 MFI
same,fluorescence intensity,[15]; [29],22.8 MFI
same,fluorescence intensity,[15]; [30],22.5 MFI
same,fluorescence intensity,[15]; [31],22.2 MFI
same,fluorescence intensity,[15]; [32],23.5 MFI
same,fluorescence intensity,[15]; [25],25.8 MFI
same,fluorescence intensity,[15]; [26],39.8 MFI
same,fluorescence intensity,[16]; [27],15 MFI
same,fluorescence intensity,[16]; [28],14.5 MFI
same,fluorescence intensity,[16]; [29],14.8 MFI
same,fluorescence intensity,[16]; [30],15.5 MFI
same,fluorescence intensity,[16]; [31],15.8 MFI
same,fluorescence intensity,[16]; [32],15 MFI
same,fluorescence intensity,[16]; [25],16 MFI
same,fluorescence intensity,[16]; [26],20.5 MFI
same,fluorescence intensity,[17]; [27],11.5 MFI
same,fluorescence intensity,[17]; [28],11.5 MFI
same,fluorescence intensity,[17]; [29],12 MFI
same,fluorescence intensity,[17]; [30],11.5 MFI
same,fluorescence intensity,[17]; [31],11.5 MFI
same,fluorescence intensity,[17]; [32],12 MFI
same,fluorescence intensity,[17]; [25],13 MFI
same,fluorescence intensity,[17]; [26],25.5 MFI
same,fluorescence intensity,[18]; [27],20 MFI
same,fluorescence intensity,[18]; [28],19.5 MFI
same,fluorescence intensity,[18]; [29],19 MFI
same,fluorescence intensity,[18]; [30],19.5 MFI
same,fluorescence intensity,[18]; [31],20 MFI
same,fluorescence intensity,[18]; [32],22 MFI
same,fluorescence intensity,[18]; [25],22.5 MFI
same,fluorescence intensity,[18]; [26],39.5 MFI
same,fluorescence intensity,[19]; [27],8.5 MFI
same,fluorescence intensity,[19]; [28],9 MFI
same,fluorescence intensity,[19]; [29],8 MFI
same,fluorescence intensity,[19]; [30],8.5 MFI
same,fluorescence intensity,[19]; [31],7.5 MFI
same,fluorescence intensity,[19]; [32],9.5 MFI
same,fluorescence intensity,[19]; [25],11.5 MFI
same,fluorescence intensity,[19]; [26],29.5 MFI
same,fluorescence intensity,[20]; [27],19.5 MFI
same,fluorescence intensity,[20]; [28],19.5 MFI
same,fluorescence intensity,[20]; [29],20.8 MFI
same,fluorescence intensity,[20]; [30],22 MFI
same,fluorescence intensity,[20]; [31],19.5 MFI
same,fluorescence intensity,[20]; [32],22.5 MFI
same,fluorescence intensity,[20]; [25],23 MFI
same,fluorescence intensity,[20]; [26],31 MFI
same,fluorescence intensity,[21]; [27],18.5 MFI
same,fluorescence intensity,[21]; [28],18.8 MFI
same,fluorescence intensity,[21]; [29],18.8 MFI
same,fluorescence intensity,[21]; [30],19 MFI
same,fluorescence intensity,[21]; [31],18.2 MFI
same,fluorescence intensity,[21]; [32],20 MFI
same,fluorescence intensity,[21]; [25],21.2 MFI
same,fluorescence intensity,[21]; [26],30.5 MFI
same,fluorescence intensity,[22]; [27],17.2 MFI
same,fluorescence intensity,[22]; [28],28.8 MFI
same,fluorescence intensity,[22]; [29],46 MFI
same,fluorescence intensity,[22]; [30],100 MFI
same,fluorescence intensity,[22]; [31],104 MFI
same,fluorescence intensity,[22]; [32],94 MFI
same,fluorescence intensity,[22]; [25],108 MFI
same,fluorescence intensity,[22]; [26],72.8 MFI
same,fluorescence intensity,[23]; [27],17 MFI
same,fluorescence intensity,[23]; [28],16.2 MFI
same,fluorescence intensity,[23]; [29],16.5 MFI
same,fluorescence intensity,[23]; [30],16.8 MFI
same,fluorescence intensity,[23]; [31],14 MFI
same,fluorescence intensity,[23]; [32],17 MFI
same,fluorescence intensity,[23]; [25],19 MFI
same,fluorescence intensity,[23]; [26],23.5 MFI
same,fluorescence intensity,[24]; [27],21 MFI
same,fluorescence intensity,[24]; [28],18 MFI

# 5 entries from above, bar-delimited:
binder | measurement | setting | value
4-99.2 (protein) chain 1: QVQLQESGPGLVKPSETLSLTCAVSGYSIRSAYEWGWIRQPPGKGLEYIGYISGESGNTYYSPSLKSRVTISRDTSKNQFSLRLSSVTAADSAVYYCARRGQLIGFDFWGQGVLVTVSS chain 2: QAAPTQPPSVSGSPGQSVTISCTGTSSDIGYYNAVSWYQHLPGKAPKLMIYEVSKRPSGVSDRFSGSKSGNTASLTISGLQAEDEADYYCSSYAGSNTYIFGAGTRLTVL | fluorescence intensity | [12]; [29] | 15.5 MFI
same | fluorescence intensity | [12]; [30] | 14 MFI
same | fluorescence intensity | [12]; [31] | 15.5 MFI
same | fluorescence intensity | [12]; [32] | 16.5 MFI
same | fluorescence intensity | [12]; [25] | 19.5 MFI
